Among all 320,000 compounds or so, about 22,000 (6.9%) were called active. This list was built around the results that the source calls inconclusive (neither active nor inactive); the mix of calls is not that of the screen. Calls follow the shape of the dose curve; as a rule, active = well fitted inhibition curve with a large enough effect; inconclusive = small, poorly fitted or top-dose-only effect, or another doubt; inactive = no such curve, though single readings can be large or run the other way. Potencies of inconclusive entries are doubtful fits and often do not repeat.
Experiment: Primary qHTS for delayed death inhibitors of the malarial parasite plastid, 96 hour incubation
Conditions: P. falciparum luciferase reporter growth; series mostly up to 28.7 µM; activity change, negative = inhibition: at the top concentration
How it was run: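 Erythrocytes infected with luciferase-expressing P. falciparum were dispensed at 2% hematocrit and 0.05% parasitemia (final), then incubated with compounds 96 hours at 37 C in 5% CO2. Luminescence after detection reagent addition reported growth.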
In the case of `Cc1cc(C)nc(N(C#N)CCOc2ccc(Cl)cc2)n1`, the Potency is reported as inconclusive: 9.28 µM [inhibitor, partial curve, poor fit].
With `COc1ccccc1CCNC(=O)c1cccc(S(=O)(=O)N2CCc3ccccc3C2)c1` the Potency was inconclusive: 11.7 µM [inhibitor, single point].
For `O=[N+]([O-])c1ccc(S(=O)(=O)Nc2nc(-c3ccccc3)cs2)cc1`, the Potency was active: 6.57 µM.
With `CC(C)(C)NC(=O)CN1CCC(O)(c2ccccc2)CC1` the Potency was inconclusive: 18.5 µM [inhibitor, single point].
With `O=C(O)c1ccccc1C(=O)NC1CCN(c2nccc(C(F)(F)F)n2)CC1` the “activity change, negative = inhibition” value was inactive: 10.3%.
With `Fc1ccc(CSc2nnc(-c3ccco3)o2)cc1` the “activity change, negative = inhibition” value was inactive: 43.5%.
For `C=CCn1c(SCC(=O)c2c(N)n(C)c(=O)n(C)c2=O)nnc1-c1ccncc1`, the Potency was inconclusive: 18.5 µM [inhibitor, single point].
With `Cc1cccc(C)c1NC(=O)CS(=O)CC(=O)NCC1OCCc2ccccc21` (stereo unspecified) the “activity change, negative = inhibition” value was inactive: -19.4%.
In the case of `O=C(CSc1nc2ccccc2nc1N1CCOCC1)N1CCN(c2ccccc2)CC1`, the Potency is reported as inconclusive: 11.7 µM [inhibitor, partial curve, poor fit].
With `O=C(CSc1ncnc2c1cnn2CCO)Nc1cccc(C(F)(F)F)c1` the “activity change, negative = inhibition” value was inactive: -1.92%.
With `Cc1ccc(-c2nn(CC(=O)N3CCOCC3)c(=O)c3ccccc23)cc1S(=O)(=O)N(C)C` the “activity change, negative = inhibition” value was inactive: -25.8%.
In the case of `CSCc1ccc(C(=O)N2CCC(CCC(=O)N(C)Cc3ccccc3)CC2)o1`, the Potency is reported as inconclusive: 4.15 µM [inhibitor, partial curve, poor fit].
With `CCCCCCc1nc2ccccc2c(=O)n1N` the Potency was inconclusive: 10.4 µM [inhibitor, single point].
For `Cc1ccc(Sc2ncnc3onc(C)c23)cc1`, the Potency was inconclusive: 9.28 µM [inhibitor, single point].
For `CCC(C)(C(=O)NC1CCCCC1)N(C(=O)c1cnccn1)c1c(C)n(C)n(-c2ccccc2)c1=O` (stereo unspecified), the Potency was inconclusive: 11.7 µM [inhibitor, partial curve, poor fit].
For `Cc1ccc(C(=O)OCC(=O)NCCC2=CCCCC2)cc1N`, the Potency was inconclusive: 0.828 µM [inhibitor, full curve, poor fit].
With `COc1ccc(C(=O)Nc2ccc3c(c2)C(=O)c2ccccc2C3=O)cc1OC` the “activity change, negative = inhibition” value was inactive: 0%.
In the case of `CC1CCCCC1NC(=O)c1cc(S(=O)(=O)N2CCCCC2)ccc1N1CCOCC1` (stereo unspecified), the Potency is reported as inconclusive: 4.65 µM [inhibitor, partial curve].
In the case of `Cc1ccsc1/C=C/C1=NCCCN1C`, the Potency is reported as inconclusive: 6.57 µM [inhibitor, partial curve].
In the case of `Cc1cc(C)cc(SCc2noc(C(=O)NCC3CCCO3)c2C(=O)O)c1` (stereo unspecified), the “activity change, negative = inhibition” value is reported as inactive: 83.3%.
With `CN(CC(O)COC(c1ccccc1)c1ccccc1)C1CCCCC1` (stereo unspecified) the Potency was inconclusive: 10.4 µM [inhibitor, partial curve].
With `O=C1N(c2ccccc2C(F)(F)F)O[C@]1(c1ccccc1)C1CCCCC1` the Potency was active: 1.04 µM.
In the case of `O=C(Nc1cccc(S(=O)(=O)N2CCCCC2)c1)C1CC1`, the “activity change, negative = inhibition” value is reported as inactive: 11.5%.
With `COc1ccc(/C=N/c2c(-c3ccc(OC)cc3)nc3n2CCS3)cc1` the Potency was inconclusive: 3.29 µM [inhibitor, single point].
In the case of `c1ccc(-c2nnc(OCc3cccnc3)c3ccccc23)cc1`, the “activity change, negative = inhibition” value is reported as inactive: -18.8%.
In the case of `CCCCn1c(N)c(N(CCOC)C(=O)c2ccc(-n3c(C)ccc3C)cc2)c(=O)[nH]c1=O`, the “activity change, negative = inhibition” value is reported as inactive: -6.46%.
With `COc1ccc(CNC(=O)COC(=O)CC2CC3CCC2C3)cc1OC` (stereo unspecified) the “activity change, negative = inhibition” value was inactive: -8.28%.
With `COCCN=C1OC(=O)N2C(=O)C3=C4[C@@H](C[C@H]5C(=O)N(c6ccccc6)C(=O)[C@H]5[C@H]4[C@@]12Cc1ccccc1)[C@H]1C(=O)N(c2ccccc2)C(=O)[C@H]1[C@H]3C` the Potency was inconclusive: 18.5 µM [inhibitor, single point].
With `Cc1cc(C(=O)NNC(=O)COc2ccccc2Cl)n[nH]1` the Potency was inconclusive: 18.5 µM [inhibitor, single point].
With `CCOC(=O)c1c(NC(=O)Cc2ccccc2)sc2c1CC(C)(C)NC2(C)C` the Potency was active: 0.928 µM.
For `Fc1cc(F)cc(NC(=S)NCCCN2CCOCC2)c1`, the Potency was inconclusive: 18.5 µM [inhibitor, single point].
In the case of `Cc1ccsc1/C=N/N1CCN(c2ccccn2)CC1`, the “activity change, negative = inhibition” value is reported as inactive: 42.9%.
With `CCN1CCN(Cc2c(O)ccc3c2O/C(=C\c2ccccc2)C3=O)CC1` the Potency was active: 11.7 µM.
With `COC(=O)c1cc(NC(=O)c2c(-c3c(Cl)cccc3Cl)noc2C)ccc1N1CCOCC1` the Potency was inconclusive: 10.4 µM [inhibitor, single point].
With `O=C(CCc1nc(-c2ccccc2)no1)NCC1CCCO1` (stereo unspecified) the Potency was inconclusive: 18.5 µM [inhibitor, partial curve, poor fit].
In the case of `CCNc1ccc(C(=O)OCC)cc1NC(=O)c1cccc(N(C)C)c1`, the “activity change, negative = inhibition” value is reported as inactive: -27.4%.
In the case of `Cc1ccccc1NC(=O)COC(=O)c1c[nH]c(=O)[nH]c1=O`, the “activity change, negative = inhibition” value is reported as inactive: 0.198%.
In the case of `CN1CCN(c2ccc(NC(=O)CSc3nnnn3-c3ccccc3Cl)cc2)CC1`, the Potency is reported as inconclusive: 18.5 µM [inhibitor, single point].
In the case of `COc1ccccc1CCNC(=O)c1ccc(Br)s1`, the Potency is reported as inconclusive: 18.5 µM [inhibitor, single point].
In the case of `O=C(CCCN1C(=O)S/C(=C/c2ccccc2)C1=S)Nc1ccc(C(=O)O)cc1`, the Potency is reported as inconclusive: 4.15 µM [inhibitor, single point].
For `CCC(C)NS(=O)(=O)c1ccc(NC(C)=O)cc1` (stereo unspecified), the Potency was inconclusive: 11.7 µM [inhibitor, single point].
In the case of `CC(=O)[C@@H]1[C@@H]2C(=O)N(C3CCCCC3)C(=O)[C@@H]2C2c3ccccc3C=CN21` (stereo partly specified), the Potency is reported as inconclusive: 18.5 µM [inhibitor, single point].
With `C=CCOc1c(Br)cc(CNc2nccs2)cc1OC` the Potency was active: 0.37 µM.
In the case of `COc1ccc2c(c1)NC(c1ccc(N(C)C)cc1)c1cccn1-2` (stereo unspecified), the Potency is reported as inconclusive: 18.5 µM [inhibitor, single point].
For `Fc1ccc(CNCCc2c[nH]c3ccccc23)cc1`, the Potency was inconclusive: 18.5 µM [inhibitor, single point].
With `CN1C(=O)C(O)N=C(c2ccccc2)c2cc(Cl)ccc21` (stereo unspecified) the Potency was inconclusive: 14.7 µM [inhibitor, single point].
% is scaled to controls: 0 for no effect and ±100 for the full control effect; potency is read from the fitted curve at half-maximal effect.
